# Data published in PubChem BioAssay AID2417 (National Center for Advancing Translational Sciences (NCATS), 2010).
# Out of some 140,000 compounds screened, about 4,300 (3.1%) were called active. Inconclusive results, whose numbers are uncertain, are shown with a selection of clear calls.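 How the source made its calls: active means readout at or below -70, meaning at least 70% loss of cells showing the perinucleolar compartment, a nuclear body marking cancer cells; inconclusive means readout between -30 and a set limit; inactive means the rest.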
# Experiment: High Content Assay for Compounds that inhibit the Assembly of the Perinucleolar Compartment;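 further: plate controls were DMSO wells for no effect and camptothecin positive control wells for full effect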
# Settings: PC3M PTB-GFP, PNC prevalence imaging, 16 h; at 10 µM; active compounds read low
# Summary of the method: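 PC3M cells stably expressing PTB-GFP, 750–1000 cells/well, treated 16 h at 37 °C with compound (23 nl of library stock), in duplicate. After paraformaldehyde fixation and Hoechst stain, imaged at 20x; PNC prevalence scored by image analysis.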
row,SMILES,"activity change (PNC), negative = inhibition"
1,CCOC(=O)C1CCN(c2c(NCCN3CCN(c4ccccc4)CC3)c(=O)c2=O)CC1,inactive: 7.84%
2,COc1ccc(C(=O)N2CCN(C3CCN(Cc4ccccc4)CC3)CC2)cc1OC,inactive: 5.16%
3,CCC(=O)NC(=S)Nc1cccc(NC(=O)CC)c1,inconclusive: -31.9%
4,CC1CC(C)CN(C(=O)c2ccc(NC(=O)c3ccc(=O)[nH]c3)cc2)C1 (centres undefined),inactive: 21%
5,COc1ccccc1C(=O)N/N=C/c1cnc2ccccc2n1,inactive: 110%
6,COc1ccccc1[C@@H]1C(c2cccc(Cl)c2)=NN(c2ccc(Br)cc2)[C@H]1C(=O)N1CCOC1=O,inconclusive: -40.5%
7,O=C(O)c1cccc(NC(=O)C2CC(=O)N(Cc3ccccc3)C2)c1 (centres undefined),inactive: 18.8%
8,CC(NC(=O)C1CCCN(S(=O)(=O)c2cccs2)C1)c1ccccc1 (centres undefined),inactive: -21.9%
9,CC(C)CN1C(=O)NC(NC(=O)c2ccco2)(C(F)(F)F)C1=O (centres undefined),inconclusive: -32.3%
10,COCC(C)NC(=O)CCS(=O)(=O)c1nc(-c2ccc(OC)cc2)cc(C(F)(F)F)n1 (centres undefined),active: -88.5%
11,CC(C)(Oc1ccc(Cl)cc1)C(=O)OCn1nnc2ccccc2c1=O,inconclusive: -51.2%
12,Clc1cccc(Cl)c1Cn1cnc2c(N3CCCCCC3)ncnc21,inactive: -26.4%
13,CC(C)C[C@@H]1NC(=O)[C@H](C(C)C)NC(=O)c2cc([N+](=O)[O-])cc(I)c2NCC[C@@H](C(N)=O)NC1=O,inactive: 50%
14,CCN(CC)c1nc(-c2ccccc2)cc(C(F)(F)F)c1C#N,inconclusive: -30.9%
15,COc1ccc(Nc2oc(COc3ccc(OC)cc3)nc2C#N)cc1,inconclusive: -37%
16,O=C(Cn1cc2c(n1)CCCC2)Nc1ccccc1Br,inconclusive: -41.7%
17,Cc1ccc(NC(=O)c2ccccc2O)cc1,active: -100%
18,Cc1nc2sc3c(c2c(=O)o1)CCC3,inactive: -3.96%
19,COc1ccc(NC(=O)c2cnc(C)cn2)c2ncccc12,inconclusive: -39.2%
20,Cc1cccc(C)c1-n1c(C)cc(/C=N\NC(=O)CC(=O)NC2CCCCC2)c1C,inactive: 35.5%
21,COC(=O)c1cc(Cl)c(NC(=O)c2ccc(C(C)(C)C)cc2)cc1OC,inconclusive: -60.1%
22,COc1ccc(CCn2c(-c3cc([N+](=O)[O-])cc([N+](=O)[O-])c3)nc3nc4ccccc4nc32)cc1,inconclusive: -40.7%

# 2 neighbouring compounds from above:
row,SMILES,"activity change (PNC), negative = inhibition"
19,COc1ccc(NC(=O)c2cnc(C)cn2)c2ncccc12,inconclusive: -39.2%
20,Cc1cccc(C)c1-n1c(C)cc(/C=N\NC(=O)CC(=O)NC2CCCCC2)c1C,inactive: 35.5%

# (list continues)

row,SMILES,"activity change (PNC), negative = inhibition"
1,N#C/C(=C(/O)COC(=O)CSc1ccc2ccccc2c1)c1nc2ccccc2[nH]1,active: -80.4%
2,CCOC(=O)C1CCN(Cc2ccc(O)c3ncccc23)CC1,inconclusive: -33.9%
3,CCC(=O)Nc1nc(C)nc(C)c1C(C)=O,inconclusive: -34%
4,Cc1oc(-c2cccc(Cl)c2)nc1CN1CCCC(C(=O)NCCCN2CCOCC2)C1 (centres undefined),inconclusive: -33.4%
5,CN(CCNC(=O)C1(O)c2ccccc2NC(=O)N1c1ccccc1)Cc1ccccc1 (centres undefined),inconclusive: -40.3%
6,CCOC(=O)c1ccc(N=c2sc(C(=O)OC)cc(=O)n2Cc2ccc3c(c2)OCO3)cc1,inconclusive: -55.3%
7,N#Cc1c(-c2ccccc2)nc2n(c1=O)CCS2,inconclusive: -49.3%
8,N#Cc1c(-c2ccccc2)nc(SCC(=O)Nc2ccccc2)[nH]c1=O,inactive: 30.6%
9,CCCn1c(C)cc(C(=O)COC(=O)CN=C2NS(=O)(=O)c3ccccc32)c1C,inactive: 36.1%
10,Cc1ccc(C(C(=O)NCc2ccco2)N(C(=O)CNC(=O)c2cccs2)c2c(C)cc(C)cc2C)cc1 (centres undefined),inconclusive: -43.1%
11,O=C(COC(=O)C1CC1)c1c[nH]c2ccccc12,active: -80.2%
12,COc1ccc(CNC(C)C2COc3ccccc3O2)c(OC)c1 (centres undefined),inconclusive: -36.7%
13,CCOC(=O)CNC(=O)COc1ccc(Cl)cc1Br,inconclusive: -52.6%
14,O=S(=O)(Nc1cccc(-c2cn3cccnc3n2)c1)c1ccc(Cl)cc1,inconclusive: -63.7%
15,CCn1c2ccccc2c2cc(NC(C)=O)ccc21,inactive: -21.4%
16,CCOc1ccc(-c2ccc(/C=C3/C(=N)N4C(C)=CSC4=NC3=O)o2)c([N+](=O)[O-])c1,inactive: 9.01%
17,CC(CCc1ccccc1)NC(=O)CSc1ccccc1 (centres undefined),inconclusive: -42.5%
18,CC(c1ccco1)N(C(=O)c1ccccc1NS(=O)(=O)c1ccc(Cl)c([N+](=O)[O-])c1)c1ccccn1 (centres undefined),inconclusive: -54.7%
19,COc1ccc(-n2c(=O)[nH]cc(C(=O)N3CCc4ccccc43)c2=O)cc1,inconclusive: -30.9%
20,Cc1nn(Cc2ccc(F)cc2)c(C)c1NC(=O)c1cccnc1Cl,active: -102%
21,CC(Sc1ccccn1)C(=O)Nc1ccccc1 (centres undefined),inconclusive: -34.5%
22,O=C(COc1ccc2ccccc2c1)Nc1ccc2c3c(cccc13)CC2,inconclusive: -41.8%
